# Measured values: the supplement of paper PMC10849652
# Sequences of proteins named here, by UniProt entry; tags and fusion partners are left off. A change or cut given only in a name is not applied to a line headed by its entry.
# UniProt Q9UL25: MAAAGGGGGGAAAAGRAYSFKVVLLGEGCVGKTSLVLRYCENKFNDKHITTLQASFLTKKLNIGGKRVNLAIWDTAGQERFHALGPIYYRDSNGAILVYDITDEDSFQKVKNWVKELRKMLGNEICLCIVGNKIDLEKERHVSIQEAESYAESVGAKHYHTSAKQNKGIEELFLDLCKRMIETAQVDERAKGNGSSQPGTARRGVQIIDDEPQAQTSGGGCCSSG
# UniProt O60671: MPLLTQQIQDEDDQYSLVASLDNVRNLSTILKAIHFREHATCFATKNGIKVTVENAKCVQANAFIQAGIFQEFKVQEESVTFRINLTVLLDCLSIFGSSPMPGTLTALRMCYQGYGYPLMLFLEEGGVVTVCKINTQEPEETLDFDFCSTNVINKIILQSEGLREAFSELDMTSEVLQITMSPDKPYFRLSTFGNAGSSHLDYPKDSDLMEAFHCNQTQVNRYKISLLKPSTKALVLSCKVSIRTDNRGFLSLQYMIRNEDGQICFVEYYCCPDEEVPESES
# UniProt Q9ULZ3, whole entry, looked up: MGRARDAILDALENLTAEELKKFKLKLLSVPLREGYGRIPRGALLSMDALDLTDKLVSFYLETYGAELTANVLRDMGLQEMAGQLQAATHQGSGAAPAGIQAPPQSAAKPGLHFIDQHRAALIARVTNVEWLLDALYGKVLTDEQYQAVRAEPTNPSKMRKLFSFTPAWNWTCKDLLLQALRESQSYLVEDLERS
# UniProt P47736: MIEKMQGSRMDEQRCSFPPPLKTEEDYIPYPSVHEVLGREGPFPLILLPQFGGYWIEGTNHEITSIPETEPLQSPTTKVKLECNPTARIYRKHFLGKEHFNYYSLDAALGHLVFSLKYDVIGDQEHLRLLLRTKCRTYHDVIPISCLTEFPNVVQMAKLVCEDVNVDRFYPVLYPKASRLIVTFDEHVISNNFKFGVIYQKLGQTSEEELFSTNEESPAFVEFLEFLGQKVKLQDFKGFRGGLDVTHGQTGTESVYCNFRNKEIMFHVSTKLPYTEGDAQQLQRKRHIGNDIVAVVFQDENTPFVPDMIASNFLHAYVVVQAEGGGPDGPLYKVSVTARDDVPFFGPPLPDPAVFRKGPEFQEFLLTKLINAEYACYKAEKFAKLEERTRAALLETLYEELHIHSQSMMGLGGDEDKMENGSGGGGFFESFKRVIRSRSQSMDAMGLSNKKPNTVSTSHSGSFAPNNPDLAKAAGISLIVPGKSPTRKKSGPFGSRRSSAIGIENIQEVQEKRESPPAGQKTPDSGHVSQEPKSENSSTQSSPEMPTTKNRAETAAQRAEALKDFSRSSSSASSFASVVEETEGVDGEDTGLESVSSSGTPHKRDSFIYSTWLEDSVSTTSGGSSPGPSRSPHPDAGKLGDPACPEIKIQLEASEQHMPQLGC
# UniProt Q6ZRP7: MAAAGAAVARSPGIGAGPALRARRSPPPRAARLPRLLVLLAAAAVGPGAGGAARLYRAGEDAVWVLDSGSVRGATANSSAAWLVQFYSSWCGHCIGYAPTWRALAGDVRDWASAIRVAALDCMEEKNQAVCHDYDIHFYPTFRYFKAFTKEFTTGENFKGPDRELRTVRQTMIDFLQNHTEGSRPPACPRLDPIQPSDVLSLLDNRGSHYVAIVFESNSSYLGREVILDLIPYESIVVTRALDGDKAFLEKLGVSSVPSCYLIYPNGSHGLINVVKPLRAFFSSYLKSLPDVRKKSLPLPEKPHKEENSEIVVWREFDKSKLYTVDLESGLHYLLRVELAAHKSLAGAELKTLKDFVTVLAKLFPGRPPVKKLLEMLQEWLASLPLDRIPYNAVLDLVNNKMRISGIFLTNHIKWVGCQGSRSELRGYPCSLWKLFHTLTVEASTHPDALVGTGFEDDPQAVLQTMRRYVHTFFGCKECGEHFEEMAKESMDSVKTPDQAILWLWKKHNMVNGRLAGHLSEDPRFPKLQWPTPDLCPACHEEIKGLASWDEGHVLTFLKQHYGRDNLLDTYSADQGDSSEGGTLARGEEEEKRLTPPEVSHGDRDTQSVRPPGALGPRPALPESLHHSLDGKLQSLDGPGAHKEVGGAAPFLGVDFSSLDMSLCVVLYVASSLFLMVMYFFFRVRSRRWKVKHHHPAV
# UniProt Q7Z7A4: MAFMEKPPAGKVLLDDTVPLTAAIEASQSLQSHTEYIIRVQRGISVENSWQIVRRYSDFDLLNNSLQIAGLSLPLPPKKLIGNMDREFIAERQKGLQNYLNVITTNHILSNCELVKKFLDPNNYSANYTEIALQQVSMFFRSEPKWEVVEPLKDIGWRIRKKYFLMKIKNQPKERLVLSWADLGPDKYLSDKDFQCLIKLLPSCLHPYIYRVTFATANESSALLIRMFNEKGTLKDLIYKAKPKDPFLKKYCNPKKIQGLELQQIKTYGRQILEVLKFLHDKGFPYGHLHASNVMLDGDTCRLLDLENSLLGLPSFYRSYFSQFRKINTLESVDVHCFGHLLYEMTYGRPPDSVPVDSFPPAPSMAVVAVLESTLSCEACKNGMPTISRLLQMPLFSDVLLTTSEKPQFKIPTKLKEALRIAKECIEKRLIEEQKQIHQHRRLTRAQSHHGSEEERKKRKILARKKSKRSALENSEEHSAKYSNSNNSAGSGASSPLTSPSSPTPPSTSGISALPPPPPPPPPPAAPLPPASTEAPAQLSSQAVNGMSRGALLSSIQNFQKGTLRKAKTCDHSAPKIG
# UniProt O60518: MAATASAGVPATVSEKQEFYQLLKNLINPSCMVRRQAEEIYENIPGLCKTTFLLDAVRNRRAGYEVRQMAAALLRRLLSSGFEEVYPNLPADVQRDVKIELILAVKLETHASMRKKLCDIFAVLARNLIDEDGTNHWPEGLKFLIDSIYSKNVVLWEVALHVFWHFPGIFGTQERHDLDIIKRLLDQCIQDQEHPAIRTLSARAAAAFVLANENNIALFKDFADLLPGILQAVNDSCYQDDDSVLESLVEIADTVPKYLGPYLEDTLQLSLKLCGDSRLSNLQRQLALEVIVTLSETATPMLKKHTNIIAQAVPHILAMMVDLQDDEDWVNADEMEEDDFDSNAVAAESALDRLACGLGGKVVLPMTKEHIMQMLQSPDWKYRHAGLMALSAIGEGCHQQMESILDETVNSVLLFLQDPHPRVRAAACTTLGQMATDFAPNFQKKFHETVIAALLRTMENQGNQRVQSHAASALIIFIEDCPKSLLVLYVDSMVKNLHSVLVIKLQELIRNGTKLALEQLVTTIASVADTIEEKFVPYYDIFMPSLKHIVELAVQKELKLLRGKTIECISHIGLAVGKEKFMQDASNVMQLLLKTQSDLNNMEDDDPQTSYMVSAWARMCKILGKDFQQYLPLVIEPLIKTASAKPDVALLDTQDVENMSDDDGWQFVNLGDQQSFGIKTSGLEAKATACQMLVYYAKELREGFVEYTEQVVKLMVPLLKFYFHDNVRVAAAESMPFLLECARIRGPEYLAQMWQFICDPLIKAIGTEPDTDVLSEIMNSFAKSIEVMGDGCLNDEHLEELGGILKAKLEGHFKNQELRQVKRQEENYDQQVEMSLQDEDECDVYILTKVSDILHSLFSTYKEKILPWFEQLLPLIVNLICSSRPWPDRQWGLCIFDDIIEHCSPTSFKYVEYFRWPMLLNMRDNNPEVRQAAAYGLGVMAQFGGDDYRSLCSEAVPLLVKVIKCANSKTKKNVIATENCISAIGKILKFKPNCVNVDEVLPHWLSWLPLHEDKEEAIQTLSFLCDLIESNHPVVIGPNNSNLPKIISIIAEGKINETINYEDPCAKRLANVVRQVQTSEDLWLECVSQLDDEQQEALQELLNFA
# UniProt Q9Y3T6: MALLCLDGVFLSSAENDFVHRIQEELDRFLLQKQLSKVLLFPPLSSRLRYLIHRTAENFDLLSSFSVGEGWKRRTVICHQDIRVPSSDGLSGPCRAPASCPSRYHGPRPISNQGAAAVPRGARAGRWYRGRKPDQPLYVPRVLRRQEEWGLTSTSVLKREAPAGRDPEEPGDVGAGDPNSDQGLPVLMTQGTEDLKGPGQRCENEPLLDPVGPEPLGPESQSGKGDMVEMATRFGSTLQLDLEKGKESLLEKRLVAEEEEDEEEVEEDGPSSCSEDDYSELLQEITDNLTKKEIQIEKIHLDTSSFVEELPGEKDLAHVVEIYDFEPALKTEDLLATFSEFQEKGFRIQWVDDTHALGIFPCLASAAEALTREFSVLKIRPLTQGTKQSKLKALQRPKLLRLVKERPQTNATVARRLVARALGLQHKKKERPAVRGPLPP
# UniProt P61224: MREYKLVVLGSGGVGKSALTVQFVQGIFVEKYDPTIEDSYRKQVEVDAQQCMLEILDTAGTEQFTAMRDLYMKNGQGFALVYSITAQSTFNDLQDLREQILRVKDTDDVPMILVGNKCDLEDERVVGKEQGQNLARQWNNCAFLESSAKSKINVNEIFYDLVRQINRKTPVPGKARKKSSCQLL
# UniProt Q86X10: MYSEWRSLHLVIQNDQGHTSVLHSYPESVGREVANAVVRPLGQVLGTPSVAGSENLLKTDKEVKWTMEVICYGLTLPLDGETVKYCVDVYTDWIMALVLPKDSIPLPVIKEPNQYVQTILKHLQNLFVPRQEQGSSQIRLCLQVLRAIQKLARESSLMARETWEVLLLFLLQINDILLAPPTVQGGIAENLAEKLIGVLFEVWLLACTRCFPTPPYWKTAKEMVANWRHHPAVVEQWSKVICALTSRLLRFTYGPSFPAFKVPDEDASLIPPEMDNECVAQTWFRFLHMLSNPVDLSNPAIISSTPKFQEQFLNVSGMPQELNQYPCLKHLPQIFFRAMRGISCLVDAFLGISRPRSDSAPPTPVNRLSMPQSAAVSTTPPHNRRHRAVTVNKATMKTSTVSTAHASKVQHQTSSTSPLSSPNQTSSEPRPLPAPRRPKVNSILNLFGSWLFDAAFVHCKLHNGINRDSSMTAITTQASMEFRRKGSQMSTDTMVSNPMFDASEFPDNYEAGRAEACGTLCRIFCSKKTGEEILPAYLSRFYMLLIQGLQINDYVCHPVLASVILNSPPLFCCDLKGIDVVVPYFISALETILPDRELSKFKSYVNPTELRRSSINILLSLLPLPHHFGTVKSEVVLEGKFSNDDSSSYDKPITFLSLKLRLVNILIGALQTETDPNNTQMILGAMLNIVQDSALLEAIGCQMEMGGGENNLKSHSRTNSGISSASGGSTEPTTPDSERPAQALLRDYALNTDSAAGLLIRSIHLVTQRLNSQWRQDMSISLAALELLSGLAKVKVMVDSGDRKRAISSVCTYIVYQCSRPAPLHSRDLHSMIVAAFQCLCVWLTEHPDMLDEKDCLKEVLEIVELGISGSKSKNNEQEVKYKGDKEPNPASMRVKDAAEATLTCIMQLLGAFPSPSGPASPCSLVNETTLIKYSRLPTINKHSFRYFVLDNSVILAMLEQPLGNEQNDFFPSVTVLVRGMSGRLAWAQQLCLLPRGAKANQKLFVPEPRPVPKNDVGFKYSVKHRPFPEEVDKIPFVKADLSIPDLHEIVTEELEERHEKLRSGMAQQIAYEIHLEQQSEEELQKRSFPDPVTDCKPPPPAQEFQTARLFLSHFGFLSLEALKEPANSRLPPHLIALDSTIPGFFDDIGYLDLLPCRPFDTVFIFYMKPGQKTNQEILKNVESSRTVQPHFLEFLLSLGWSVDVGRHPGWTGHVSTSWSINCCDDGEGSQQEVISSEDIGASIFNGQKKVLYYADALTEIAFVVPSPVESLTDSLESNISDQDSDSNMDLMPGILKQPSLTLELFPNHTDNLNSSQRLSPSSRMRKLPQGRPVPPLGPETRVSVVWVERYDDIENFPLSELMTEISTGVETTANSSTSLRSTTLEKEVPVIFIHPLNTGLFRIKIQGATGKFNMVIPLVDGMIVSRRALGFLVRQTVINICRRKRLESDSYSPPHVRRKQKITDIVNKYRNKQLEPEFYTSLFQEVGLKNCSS
# UniProt P10114: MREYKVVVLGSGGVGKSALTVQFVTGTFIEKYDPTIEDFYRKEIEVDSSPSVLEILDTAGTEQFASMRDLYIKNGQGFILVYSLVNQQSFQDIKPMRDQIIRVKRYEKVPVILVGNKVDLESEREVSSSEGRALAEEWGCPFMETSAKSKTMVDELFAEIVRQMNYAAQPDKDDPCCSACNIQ
# UniProt Q15907: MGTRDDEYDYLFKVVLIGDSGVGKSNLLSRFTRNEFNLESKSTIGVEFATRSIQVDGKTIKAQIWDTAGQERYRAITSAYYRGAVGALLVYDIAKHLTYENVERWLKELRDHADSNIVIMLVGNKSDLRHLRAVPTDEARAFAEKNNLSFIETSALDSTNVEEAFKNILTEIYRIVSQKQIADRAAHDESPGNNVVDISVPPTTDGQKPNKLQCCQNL
# UniProt Q9UL26: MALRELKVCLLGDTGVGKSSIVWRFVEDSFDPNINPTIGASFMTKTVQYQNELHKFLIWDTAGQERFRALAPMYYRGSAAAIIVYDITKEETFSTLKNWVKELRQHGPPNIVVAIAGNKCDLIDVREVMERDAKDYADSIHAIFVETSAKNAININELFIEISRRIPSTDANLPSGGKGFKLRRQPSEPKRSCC
# The other results are listed elsewhere or left out.
# Tests used:
# Experiment in all cases: log2 fold change, soluble protein after heating vs DMSO (PISA); higher = thermal stabilisation; K562 lysate, 10 uM; active = over 0.2 and 3.5 SD of the protein, either way, in both replicates (recomputed)
# alvocidib = compound: CN1CC[C@H](c2c(O)cc(O)c3c(=O)cc(-c4ccccc4Cl)oc23)[C@H](O)C1 [alvocidib]
# Summary of the method: (§1)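 K562 pellets were dounce-homogenised in PBS pH 7.4 with 1 mM MgCl2, and the crude extract at 1 mg/mL protein was treated with 10 μM compound for 30 min. Aliquots were heated for 3 min across 48°C-58°C, pooled, and brought to 0.5% NP-40 at 4°C; soluble protein was the supernatant after 21,000xg for 90 min. Soluble protein was quantified by TMTpro 16plex LC-MS/MS with channel sums equalised, and reported as log2 fold change in thermal stability against DMSO controls, with values from duplicates.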
# Tubastatin A = compound: CN1CCc2c(c3ccccc3n2Cc2ccc(C(=O)NO)cc2)C1 [Tubastatin A]
# Summary of the method: as §1
# [1] = compound: CNC(=O)C1=CC=CC=C1NC2=NC(=NC=C2Cl)NC3=C(C=C(C=C3)N4CCOCC4)OC
# Summary of the method: as §1
# defactinib = compound: CNC(=O)c1ccc(Nc2ncc(C(F)(F)F)c(NCc3nccnc3N(C)S(C)(=O)=O)n2)cc1 [defactinib]
# Summary of the method: as §1
# [2] = compound: CNc1nc(-c2ccc3c(N)n[nH]c3c2)cc(N2C[C@@H](C(=O)NC3CCCCC3)CC[C@H]2C)n1
# Summary of the method: as §1
# encorafenib = compound: COC(=O)N[C@@H](C)CNc1nccc(-c2cn(C(C)C)nc2-c2cc(Cl)cc(NS(C)(=O)=O)c2F)n1 [encorafenib]
# Summary of the method: as §1
# [3] = compound: COC(=O)[C@H](CCSC)NC(=O)C1=C(C=C(C=C1)NC[C@H](CS)N)C2=CC=CC=C2
# Summary of the method: as §1
# alisertib = compound: COc1cc(Nc2ncc3c(n2)-c2ccc(Cl)cc2C(c2c(F)cccc2OC)=NC3)ccc1C(=O)O [alisertib]
# Summary of the method: as §1
# [4] = compound: COc1cc2nc(-c3cc(F)ccc3O)nc(N[C@@H]3CNC[C@H]3C(C)(C)O)c2cc1OC
# Summary of the method: as §1
# gefitinib = compound: COc1cc2ncnc(Nc3ccc(F)c(Cl)c3)c2cc1OCCCN1CCOCC1 [gefitinib]
# Summary of the method: as §1
# lapatinib = compound: CS(=O)(=O)CCNCc1ccc(-c2ccc3ncnc(Nc4ccc(OCc5cccc(F)c5)c(Cl)c4)c3c2)o1 [lapatinib]
# Summary of the method: as §1
# pictilisib = compound: CS(=O)(=O)N1CCN(Cc2cc3nc(-c4cccc5[nH]ncc45)nc(N4CCOCC4)c3s2)CC1 [pictilisib]
# Summary of the method: as §1
# crizotinib = compound: C[C@@H](Oc1cc(-c2cnn(C3CCNCC3)c2)cnc1N)c1c(Cl)ccc(F)c1Cl [crizotinib]
# Summary of the method: as §1
# [5] = compound: C[C@H](C1=CC=C(C=C1)C(=O)NC2=C3C=CNC3=NC=C2)N
# Summary of the method: as §1
# duvelisib = compound: C[C@H](Nc1ncnc2nc[nH]c12)c1cc2cccc(Cl)c2c(=O)n1-c1ccccc1 [duvelisib]
# Summary of the method: as §1
# gandotinib = compound: Cc1cc(Nc2cc(CN3CCOCC3)c3nc(C)c(Cc4ccc(Cl)cc4F)n3n2)n[nH]1 [gandotinib]
# Summary of the method: as §1
# tozasertib = compound: Cc1cc(Nc2cc(N3CCN(C)CC3)nc(Sc3ccc(NC(=O)C4CC4)cc3)n2)n[nH]1 [tozasertib]
# Summary of the method: as §1
# doramapimod = compound: Cc1ccc(-n2nc(C(C)(C)C)cc2NC(=O)Nc2ccc(OCCN3CCOCC3)c3ccccc23)cc1 [doramapimod]
# Summary of the method: as §1
# bafetinib = compound: Cc1ccc(NC(=O)c2ccc(CN3CC[C@H](N(C)C)C3)c(C(F)(F)F)c2)cc1Nc1nccc(-c2cncnc2)n1 [bafetinib]
# Summary of the method: as §1
# [6] = compound: Cc1cccc(CC(=O)N2CCc3c2ccc(-c2cn(C)c4ncnc(N)c24)c3F)n1
# Summary of the method: as §1
Target,log2 fold change (alvocidib),log2 fold change (Tubastatin A),log2 fold change [1],log2 fold change (defactinib),log2 fold change [2],log2 fold change (encorafenib),log2 fold change [3],log2 fold change (alisertib),log2 fold change [4],log2 fold change (gefitinib),log2 fold change (lapatinib),log2 fold change (pictilisib),log2 fold change (crizotinib),log2 fold change [5],log2 fold change (duvelisib),log2 fold change (gandotinib),log2 fold change (tozasertib),log2 fold change (doramapimod),log2 fold change (bafetinib),log2 fold change [6]
RAB21 (UniProt Q9UL25),inactive: 0.069,inactive: 0.034,inactive: 0.048,inactive: -0.025,inactive: 0.026,inactive: 0.005,inactive: -0.072,inactive: 0.015,inactive: 0.013,inactive: 0.003,inactive: -0.028,inactive: -0.053,inactive: -0.001,inactive: 0.208,inactive: -0.087,inactive: -0.112,inactive: -0.013,inactive: -0.055,inactive: -0.059,inactive: -0.09
RAD1 (UniProt O60671),inactive: -0.026,inactive: -0.037,inactive: 0.062,inactive: -0.013,inactive: 0.011,inactive: -0.028,inactive: 0,inactive: 0.038,inactive: -0.032,inactive: -0.035,inactive: 0.008,inactive: -0.03,inactive: -0.046,inactive: -0.053,inactive: 0.026,inactive: 0.023,inactive: 0.076,inactive: -0.019,inactive: 0.003,inactive: 0.024
"R3HCC1L, A0A384DVK4",inactive: -0.047,inactive: -0.067,inactive: 0.04,inactive: 0.032,inactive: -0.012,inactive: 0.074,inactive: 0,inactive: 0.014,inactive: -0.041,inactive: 0.007,inactive: 0.1,inactive: -0.069,inactive: -0.007,inactive: -0.118,inactive: 0.025,inactive: 0.03,inactive: 0.068,inactive: -0.02,inactive: -0.038,inactive: 0.026
PYCARD (UniProt Q9ULZ3),inactive: -0.019,inactive: 0.076,inactive: 0.021,inactive: 0,inactive: 0.063,inactive: -0.034,inactive: -0.073,inactive: -0.022,inactive: 0.013,inactive: 0.023,inactive: 0.003,inactive: -0.052,inactive: 0.019,inactive: 0,inactive: -0.014,inactive: 0.049,inactive: 0.037,inactive: 0.013,inactive: 0.03,inactive: 0.007
RAP1GAP isoform 4 (UniProt P47736),inactive: 0.01,inactive: -0.138,inactive: 0.06,inactive: 0.012,inactive: -0.027,inactive: 0.022,inactive: 0.01,inactive: 0.024,inactive: 0.008,inactive: 0.026,inactive: -0.019,inactive: -0.018,inactive: -0.044,inactive: 0.044,inactive: -0.032,inactive: -0.044,inactive: -0.009,inactive: -0.001,inactive: -0.069,inactive: 0.007
QSOX2 (UniProt Q6ZRP7),inactive: -0.013,inactive: 0.038,inactive: -0.002,inactive: 0.025,inactive: -0.005,inactive: 0.032,inactive: 0.001,inactive: -0.005,inactive: -0.013,inactive: -0.01,inactive: 0.027,inactive: -0.019,inactive: -0.002,inactive: -0.136,inactive: -0.035,inactive: 0.034,inactive: -0.015,inactive: 0.03,inactive: -0.061,inactive: 0.068
PXK (UniProt Q7Z7A4),inactive: 0.034,inactive: -0.054,inactive: 0.016,inactive: 0.018,inactive: 0.012,inactive: -0.002,inactive: 0.006,inactive: 0.047,inactive: 0.015,inactive: 0.011,inactive: -0.046,inactive: -0.018,inactive: 0.001,inactive: -0.06,inactive: -0.005,inactive: 0.047,inactive: -0.036,inactive: 0.025,inactive: -0.034,inactive: 0.014
RANBP6 (UniProt O60518),inactive: -0.033,inactive: -0.07,inactive: 0.008,inactive: 0.047,inactive: 0.014,inactive: -0.027,inactive: 0.057,inactive: 0.063,inactive: 0.046,inactive: 0.008,inactive: -0.007,inactive: -0.005,inactive: -0.125,inactive: -0.067,inactive: 0.019,inactive: -0.01,inactive: 0.012,inactive: 0.039,inactive: 0.016,inactive: 0.148
R3HCC1 (UniProt Q9Y3T6),inactive: -0.019,inactive: 0.023,inactive: 0.048,inactive: 0.055,inactive: -0.018,inactive: -0.004,inactive: -0.04,inactive: -0.002,inactive: 0.003,inactive: 0.008,inactive: -0.018,inactive: -0.049,inactive: 0,inactive: -0.034,inactive: 0,inactive: 0.089,inactive: 0.006,inactive: 0.044,inactive: 0.002,inactive: 0.08
RAP1B (UniProt P61224),inactive: 0.039,inactive: 0.05,inactive: 0.005,inactive: 0.02,inactive: 0.025,inactive: 0.011,inactive: -0.034,inactive: 0.015,inactive: 0.057,inactive: -0.054,inactive: 0.009,inactive: -0.006,inactive: 0.008,active: 0.215,inactive: -0.045,inactive: -0.036,inactive: 0,inactive: 0.017,inactive: 0.17,inactive: -0.021
RALGAPB (UniProt Q86X10),inactive: 0.02,inactive: -0.056,inactive: -0.069,inactive: 0.026,inactive: 0.012,inactive: 0.044,inactive: 0.015,inactive: 0,inactive: 0.032,inactive: -0.007,inactive: 0.021,inactive: -0.062,inactive: -0.088,inactive: -0.09,inactive: 0.103,inactive: -0.06,inactive: 0.062,inactive: 0.046,inactive: -0.043,inactive: 0.103
RAP2A (UniProt P10114),inactive: 0.003,inactive: 0.066,inactive: 0.015,inactive: 0.12,inactive: 0.051,inactive: 0.008,inactive: -0.054,inactive: 0.003,inactive: 0.026,inactive: 0,inactive: -0.065,inactive: -0.039,inactive: -0.015,inactive: -0.017,inactive: 0.019,inactive: 0.001,inactive: -0.017,inactive: -0.014,inactive: 0.015,inactive: -0.011
RAB11B (UniProt Q15907),inactive: 0,inactive: 0.093,inactive: -0.03,inactive: -0.015,inactive: -0.009,inactive: -0.036,inactive: -0.019,inactive: 0.037,inactive: 0.028,inactive: 0.014,inactive: -0.009,inactive: -0.032,inactive: 0.006,inactive: -0.04,inactive: 0.039,inactive: -0.018,inactive: 0.018,inactive: 0.004,inactive: 0.036,inactive: 0.072
RAB3GAP2 (UniProt Q9H2M9),inactive: -0.003,inactive: -0.061,inactive: 0.004,inactive: 0.007,inactive: -0.014,inactive: 0.025,inactive: 0.051,inactive: 0.035,inactive: -0.006,inactive: 0.003,inactive: 0.001,inactive: -0.017,inactive: -0.028,inactive: 0.019,inactive: -0.017,inactive: -0.073,inactive: 0.002,inactive: 0.032,inactive: -0.06,inactive: 0.008
RAB22A (UniProt Q9UL26),inactive: -0.037,inactive: 0.01,inactive: 0.097,inactive: -0.019,inactive: -0.052,inactive: 0.03,inactive: -0.064,inactive: 0.045,inactive: 0.061,inactive: 0.037,inactive: -0.024,inactive: -0.049,inactive: -0.008,inactive: -0.056,inactive: 0.016,inactive: 0.072,inactive: -0.034,inactive: 0.002,inactive: -0.002,inactive: 0.073
PXN isoform 3 (UniProt P49023),inactive: 0.003,inactive: -0.013,inactive: 0.045,inactive: -0.001,inactive: 0.025,inactive: -0.013,inactive: -0.098,inactive: -0.004,inactive: -0.027,inactive: -0.024,inactive: 0.071,inactive: 0.01,inactive: -0.027,inactive: 0.019,inactive: 0,inactive: 0.07,inactive: 0.018,inactive: 0.045,inactive: 0.039,inactive: -0.024

# A second format for part of the listing above.
Target | log2 fold change (alvocidib) | log2 fold change (Tubastatin A) | log2 fold change [1] | log2 fold change (defactinib) | log2 fold change [2] | log2 fold change (encorafenib) | log2 fold change [3] | log2 fold change (alisertib) | log2 fold change [4] | log2 fold change (gefitinib) | log2 fold change (lapatinib) | log2 fold change (pictilisib) | log2 fold change (crizotinib) | log2 fold change [5] | log2 fold change (duvelisib) | log2 fold change (gandotinib) | log2 fold change (tozasertib) | log2 fold change (doramapimod) | log2 fold change (bafetinib) | log2 fold change [6]
QSOX2 (UniProt Q6ZRP7) | inactive: -0.013 | inactive: 0.038 | inactive: -0.002 | inactive: 0.025 | inactive: -0.005 | inactive: 0.032 | inactive: 0.001 | inactive: -0.005 | inactive: -0.013 | inactive: -0.01 | inactive: 0.027 | inactive: -0.019 | inactive: -0.002 | inactive: -0.136 | inactive: -0.035 | inactive: 0.034 | inactive: -0.015 | inactive: 0.03 | inactive: -0.061 | inactive: 0.068
RALGAPB (UniProt Q86X10) | inactive: 0.02 | inactive: -0.056 | inactive: -0.069 | inactive: 0.026 | inactive: 0.012 | inactive: 0.044 | inactive: 0.015 | inactive: 0 | inactive: 0.032 | inactive: -0.007 | inactive: 0.021 | inactive: -0.062 | inactive: -0.088 | inactive: -0.09 | inactive: 0.103 | inactive: -0.06 | inactive: 0.062 | inactive: 0.046 | inactive: -0.043 | inactive: 0.103
RAB11B (UniProt Q15907) | inactive: 0 | inactive: 0.093 | inactive: -0.03 | inactive: -0.015 | inactive: -0.009 | inactive: -0.036 | inactive: -0.019 | inactive: 0.037 | inactive: 0.028 | inactive: 0.014 | inactive: -0.009 | inactive: -0.032 | inactive: 0.006 | inactive: -0.04 | inactive: 0.039 | inactive: -0.018 | inactive: 0.018 | inactive: 0.004 | inactive: 0.036 | inactive: 0.072
